At least one compound was matched to its structure with a doubt left.
Test system: fasting triglycerides
Experiment: ANCHOR study, EPA plasma level vs triglyceride reduction (FIG. 6)
Assay type: in vivo, human
Settings: placebo, EPA 2 g per day and 4 g per day, percent change from baseline

SMILES: CC/C=C\C/C=C\C/C=C\C/C=C\C/C=C\CCCC(=O)OCC [IPE, ethyl eicosapentaenoate]
- relationship between EPA plasma levels and triglyceride reduction: linear concentration-response pharmacodynamics relationship
